Experimental data reported in patent CN109942709A.
Results are given in words; binding and its absence hold for the method and conditions named. Some binding calls cover weakened binding; strength is not graded here.

By UniProt entry, the sequences of proteins in these tests, tags left out. Residues count along the entry.
UniProt Q02223, residues 1-54: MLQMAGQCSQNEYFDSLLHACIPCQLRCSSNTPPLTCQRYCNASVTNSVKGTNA

B1: QL197F7 (clone, culture lysate) (VHH)
VHH: QDRLVESGGGSVQAGGSLKLSCRTSGFNLDDYAIGWFRQAPGKERERVSCISSDGRTSHTGSAKGRFTIRSANARNTVYLQLNRLTPEDAGVYFCAAERTSRLCSFLSYDYWGQGTQVTVSS
B2: QL197A11 (clone, culture lysate) (VHH)
VHH: QVLLVESGGGLVQAGGSLRLSCAVSGRTVSTATMGWFRQAPGKEREFVAALNWSGNKSYYADSVKGRFAISRDEAKNTVYLQMNSLKPEDTAVYHCAAGPDLNYYTNYDARRYDHWGQGTQVTVSS
B3: QL197C9 (clone, culture lysate) (VHH)
VHH: QGQYVESGGGSVQAGESLRLSCIGSHTTAINAAGWYRQTPGKQRELVGLIHNDGSTQYAQFAKGRFTISRDDAKDAVYLQMNSLKVEDTGVYYCNIDSRGVGPVWAHWGQGTQVTVSS
B4: QL197D11 (clone, culture lysate) (VHH)
VHH: QAQLKESGGGSVRTGESLRLSCEASGNIYSINRMAWYRQVSGMQREVVATSLVDGTTNYGDSVKDRFTVSRDNAKKMVFLQMNSLEPADTGVYYCNVEGNRIDYAPGSRYPTHSYVELWGQGTQVTVSS
B5: QL197E2 (clone, culture lysate) (VHH)
VHH: QVQLVENGGGLVQPGGSLRLSCAASGASFNDYHMGWFRQAPGQERKFVAQIARYGAATYYARAVQGRFTISVDDAKNTVYLQMNGLTPDDTGVYYCTADRSNYYIDNALPDYWGQGTQVTVSS
B6: QL197G8 (clone, culture lysate) (VHH)
VHH: QVQLVESGGGLVQAGGSLRLSCAASGRTFSDHTLGWFRQAPGKEREFVGAISWSGGSTYYADSVSGRFTISRDKAKNTGYLQMNSLKPEDTAVYYCAAADDRYSDYRYWGQGTQVTVSS
B7: QL197F4 (clone, culture lysate) (VHH)
VHH: QVQLIESGGGLVQAGTSLTLSCASSGRNFNSYAMGWFRQAPGKEREFLATISRAAGSTYYADSAKGRFTISRDNRKEFAYLQIHDLKPDDTAVYYCAAESWTPTTGWPPTKADEFDYWGQGTQVTVSS

Molecular target: 人BCMA (ELISA包被抗原) (human) (UniProt Q02223)
Assay: ELISA of clone culture lysates on coated BCMA free peptide and human BCMA, HSA as negative control

binding, binds:
B1
B2
B3
B4
B5
B6
B7
